{"source": "the supplement of paper PMC8975748", "note": "Structures can show the parent of a compound that is named as a salt. ± gives the standard deviation of the averaged measurements. This is one part of the list. Values are raw readings; no control value is given beside them.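 The yeast community starts from one strain carrying four plasmids, each with an amino-acid or uracil synthesis gene and a fluorescent protein. Random plasmid loss creates mixed prototroph and auxotroph subpopulations. Cells were fixed and counted by automated confocal fluorescence imaging, and DMSO-treated wells served as the vehicle reference.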 Bridge positions count the residues as written; N and C are the ends. Square brackets hold non-standard residues; d marks the D form. Peptide text beside a SMILES is read from it. * marks the point of attachment. Heptanoyl(6-Me) = CC(C)CCCCC(=O)*; Dab = NCC[C@H](N)C(=O)O"}
{"test_system": "Saccharomyces cerevisiae BY4741 SeMeCo community", "assay": "imaged cell count per well (cells); higher = more cells", "settings": "10 µM; 24 h; SM minimal medium", "protocol": "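Same SeMeCo high-content imaging drug screen: Selleck FDA-approved drugs at 10 µM, 24 h in SM medium, 384-well plates, 3 replicates.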"}
{"molecule": "O=C1CN2Cc3c(ccc(Cl)c3Cl)N=C2N1", "note": "[Anagrelide HCl]", "imaged cell count per well": "21000 ± 11000"}
{"molecule": "O=C1c2cccc3c2[C@H](CCC3)CN1[C@@H]1CN2CCC1CC2", "note": "[Palonosetron]", "imaged cell count per well": "27200 ± 6200"}
{"molecule": "CC[C@H]1OC(=O)[C@H](C)[C@@H](O[C@H]2C[C@@](C)(OC)[C@@H](O)[C@H](C)O2)[C@H](C)[C@@H](O[C@@H]2O[C@H](C)C[C@H](N(C)C)[C@H]2O)[C@](C)(O)C[C@@H](C)[C@@H]2N[C@@H](COCCOC)O[C@H]([C@H]2C)[C@]1(C)O", "note": "[Dirithromycin]", "imaged cell count per well": "27200 ± 7500"}
{"molecule": "CCCCCCCN(CC)CCCC(O)c1ccc(NS(C)(=O)=O)cc1", "note": "(stereo not given) [Ibutilide Fumarate]", "imaged cell count per well": "22600 ± 5600"}
{"molecule": "O=C(Cn1cnnn1)N[C@@H]1C(=O)N2C(C(=O)O)=C(CSc3nncs3)CS[C@H]12", "note": "[Ceftezole]", "imaged cell count per well": "28600 ± 3500"}
{"molecule": "O=C1OC(CN2CCOCC2)CN1/N=C/c1ccc([N+](=O)[O-])o1", "note": "(stereo not given) [Furaltadone HCl]", "imaged cell count per well": "19200 ± 1900"}
{"molecule": "CCOC(=O)C1=C(C)NC(C)=C(C(=O)OC)C1c1cccc([N+](=O)[O-])c1", "note": "(stereo not given) [Nitrendipine]", "imaged cell count per well": "23000 ± 430"}
{"molecule": "COCC(=O)Nc1cc(Sc2ccccc2)ccc1N=C(NC(=O)OC)NC(=O)OC", "note": "[Febantel]", "imaged cell count per well": "30400 ± 2500"}
{"molecule": "Clc1ccc(C(Cn2ccnc2)OCc2csc3c(Cl)cccc23)c(Cl)c1", "note": "(stereo not given) [Sertaconazole nitrate]", "imaged cell count per well": "1650 ± 680"}
{"molecule": "CNCc1cc(-c2ccccc2F)n(S(=O)(=O)c2cccnc2)c1", "note": "[Vonoprazan Fumarate (TAK-438)]", "imaged cell count per well": "21300 ± 6900"}
{"molecule": "C=CCc1ccc(O)c(-c2ccc(O)c(CC=C)c2)c1", "note": "[Honokiol]", "imaged cell count per well": "19100 ± 2100"}
{"molecule": "O=C(O)Cc1ccccc1Nc1c(Cl)cccc1Cl", "note": "[Diclofenac acid]", "imaged cell count per well": "23200 ± 1500"}
{"molecule": "Nc1nc2[nH]cc(CCc3ccc(C(=O)N[C@@H](CCC(=O)O)C(=O)O)cc3)c2c(=O)[nH]1", "note": "[Pemetrexed]", "imaged cell count per well": "14800 ± 1400"}
{"molecule": "COc1ccc(Cl)cc1C(=O)NCCc1ccc(S(=O)(=O)NC(=O)NC2CCCCC2)cc1", "note": "[Glyburide (Glibenclamide)]", "imaged cell count per well": "25900 ± 3400"}
{"molecule": "N#C/C(=C1/SC[C@@H](c2ccc(Cl)cc2Cl)S1)n1ccnc1", "note": "[Luliconazole]", "imaged cell count per well": "3090 ± 800"}
{"molecule": "CCN1CCC[C@H]1CNC(=O)c1cc(S(N)(=O)=O)ccc1OC", "note": "[Levosulpiride]", "imaged cell count per well": "20900 ± 2000"}
{"molecule": "Cc1[nH]c(=O)c(C#N)cc1-c1ccncc1", "note": "[Milrinone]", "imaged cell count per well": "24400 ± 4200"}
{"molecule": "CC(C)CCCCC(=O)N[C@@H](CCN)C(=O)N[C@H](C(=O)N[C@@H](CCN)C(=O)N[C@H]1CCNC(=O)[C@H]([C@@H](C)O)NC(=O)[C@H](CCN)NC(=O)[C@H](CCN)NC(=O)[C@H](CC(C)C)NC(=O)[C@@H](Cc2ccccc2)NC(=O)[C@H](CCN)NC1=O)[C@@H](C)O", "note": "[Polymyxin B sulphate] ({Heptanoyl(6-Me)}-[Dab]T[Dab][Dab][Dab][dF]L[Dab][Dab]T; lactam 4-C)", "imaged cell count per well": "32300 ± 6500"}
{"molecule": "Cc1onc(-c2c(Cl)cccc2Cl)c1C(=O)N[C@@H]1C(=O)N2[C@@H]1SC(C)(C)[C@@H]2C(=O)O", "note": "[Dicloxacillin Sodium]", "imaged cell count per well": "27000 ± 5600"}
{"molecule": "O=C(O)Cc1ccccc1Nc1c(Cl)cccc1Cl", "note": "[Diclofenac Sodium]", "imaged cell count per well": "19000 ± 2100"}
{"molecule": "Cc1ncc([N+](=O)[O-])n1CC(C)O", "note": "(stereo not given) [Secnidazole]", "imaged cell count per well": "23300 ± 4900"}
{"molecule": "COCCOC(=O)C1=C(C)NC(C)=C(C(=O)OC/C=C/c2ccccc2)C1c1cccc([N+](=O)[O-])c1", "note": "(stereo not given) [Cilnidipine]", "imaged cell count per well": "27800 ± 11000"}
{"molecule": "NCC[C@H](O)C(=O)N[C@@H]1C[C@H](N)[C@@H](O[C@H]2O[C@H](CN)[C@@H](O)[C@H](O)[C@H]2O)[C@H](O)[C@H]1O[C@H]1O[C@H](CO)[C@@H](O)[C@H](N)[C@H]1O", "note": "[Amikacin hydrate]", "imaged cell count per well": "19700 ± 1800"}
{"molecule": "Cc1ccc(Nc2c(F)cccc2Cl)c(CC(=O)O)c1", "note": "[Lumiracoxib]", "imaged cell count per well": "11300 ± 5700"}
{"molecule": "CC(C(=O)O)c1ccc2c(c1)CC(=O)c1ccccc1S2", "note": "(stereo not given) [Zaltoprofen]", "imaged cell count per well": "15900 ± 900"}
{"molecule": "COc1ccnc(C[S+]([O-])c2nc3cc(OC(F)F)ccc3[nH]2)c1OC", "note": "(stereo not given) [Pantoprazole sodium]", "imaged cell count per well": "21100 ± 11000"}
{"molecule": "CC1(C)S[C@@H]2[C@H](NC(=O)Cc3ccccc3)C(=O)N2[C@H]1C(=O)O", "note": "[Benzylpenicillin potassium]", "imaged cell count per well": "24900 ± 1500"}
{"molecule": "CCCOc1ccc(C(=O)OCCN(CC)CC)cc1N", "note": "[Proparacaine HCl]", "imaged cell count per well": "20600 ± 6400"}
{"molecule": "Fc1ccc([C@@H]2CCNC[C@H]2COc2ccc3c(c2)OCO3)cc1", "note": "[Paroxetine HCl]", "imaged cell count per well": "20600 ± 6600"}
{"molecule": "CC1=C[C@H]2C(=O)O[C@H]3C[C@@H](C/C=C(\\C)C[C@@H](C)/C=C/C=C4\\CO[C@H](/C1=N\\O)[C@@]42O)O[C@@]1(CC[C@H](C)[C@@H](C)O1)C3.CC[C@H]1O[C@]2(CC[C@@H]1C)C[C@@H]1C[C@@H](C/C=C(\\C)C[C@@H](C)/C=C/C=C3\\CO[C@@H]4/C(=N\\O)C(C)=C[C@@H](C(=O)O1)[C@]34O)O2", "note": "[Milbemycin Oxime]", "imaged cell count per well": "25500 ± 7100"}
{"molecule": "CC1(C)S[C@@H]2[C@H](NC(=O)Cc3ccccc3)C(=O)N2[C@H]1C(=O)O.CCN(CC)CCOC(=O)c1ccc(N)cc1", "note": "[Penicillin G Procaine]", "imaged cell count per well": "24400 ± 3400"}
{"molecule": "O=c1[nH]cc(F)c(=O)[nH]1", "note": "[Fluorouracil (5-Fluoracil, 5-FU)]", "imaged cell count per well": "1850 ± 150"}
{"molecule": "CC[C@@H]1C(=O)OC[C@@H]1Cc1cncn1C", "note": "[Pilocarpine HCl]", "imaged cell count per well": "19200 ± 8600"}
{"molecule": "Oc1c(Cl)cc(Cl)c2cccnc12", "note": "[Chloroxine]", "imaged cell count per well": "655 ± 180"}
{"molecule": "Cc1cc(O)cc(C)c1Cl", "note": "[Chloroxylenol]", "imaged cell count per well": "19700 ± 7200"}
{"molecule": "CC(C)c1c(C(=O)Nc2ccccc2)c(-c2ccccc2)c(-c2ccc(F)cc2)n1CC[C@@H](O)C[C@@H](O)CC(=O)O", "note": "[Atorvastatin]", "imaged cell count per well": "17400 ± 1100"}
{"molecule": "C=C[C@H]1CN2CC[C@H]1C[C@@H]2[C@@H](O)c1ccnc2ccc(OC)cc12", "note": "[Quinidine sulfate]", "imaged cell count per well": "21200 ± 4200"}
{"molecule": "CC(C(=O)O)c1ccc(C(=O)c2cccs2)cc1", "note": "(stereo not given) [Suprofen]", "imaged cell count per well": "23800 ± 4500"}
{"molecule": "C[C@H]1O[C@@H](O[C@H]2[C@@H](O)C[C@H](O[C@H]3[C@@H](O)C[C@H](O[C@H]4CC[C@@]5(C)[C@H](CC[C@@H]6[C@@H]5C[C@@H](O)[C@]5(C)[C@@H](C7=CC(=O)OC7)CC[C@]65O)C4)O[C@@H]3C)O[C@@H]2C)C[C@H](O)[C@@H]1O", "note": "[Digoxin]", "imaged cell count per well": "25700 ± 8700"}
{"molecule": "Cc1nc2n(c(=O)c1CCN1CCC(c3noc4cc(F)ccc34)CC1)CCCC2O", "note": "(stereo not given) [Paliperidone]", "imaged cell count per well": "31300 ± 7600"}
